The exact form of at least one protein or probe is not confirmed. Results from cells or extracts need not show a direct contact. A negative result means that nothing was seen under these conditions. At least one verdict rests on a figure or table, not on a statement of the authors.
Target: HuR (endogenous, RAW 264.7 lysate) (Mus musculus (RAW 264.7)) (UniProt P70372)
Experiment: pull-down
Details: pull-down: lysis in 20 mM Tris-HCl pH 7.5, 100 mM KCl, 5 mM MgCl2, 0.5% NP-40, probe 0.5 uM in TENT (20 mM Tris-HCl pH 8.0, 2 mM EDTA, 500 mM NaCl, 1% Triton X-100), 4 C, protein in an extract, label: biotin

Amino acid sequences for entries named in this document (tags omitted).
UniProt P70372, whole entry: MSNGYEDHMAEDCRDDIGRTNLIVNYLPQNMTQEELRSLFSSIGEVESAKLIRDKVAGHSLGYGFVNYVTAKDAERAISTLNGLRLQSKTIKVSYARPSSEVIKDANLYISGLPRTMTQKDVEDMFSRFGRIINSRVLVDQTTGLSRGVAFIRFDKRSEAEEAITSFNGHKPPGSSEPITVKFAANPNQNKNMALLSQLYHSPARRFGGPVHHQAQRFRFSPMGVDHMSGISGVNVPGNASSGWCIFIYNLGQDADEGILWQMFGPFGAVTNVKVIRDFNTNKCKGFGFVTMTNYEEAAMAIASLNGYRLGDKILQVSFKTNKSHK

Sequence	binding result (DMSO, HuR signal reduced ~50% after TM7nox 10 uM pre-treatment, 5'-biotin)	binding result (probe described as not recognized by HuR, biotin)
AUUAUUUAUUAUUUAUUUAUUAUUUA [Bi-TNF ARE probe]	binds	
ACCACCCACCACCCACCCACCACCCA [Bi-TNFneg (ARE-Neg)]		no binding

— paper PMC10110401
